Where a chain is given by its changes, count along the chain named. Like-named read-outs stand apart in the source and are kept apart here. No constants are given. Whether binding was seen depends on the method and setting. Some entries that bind do so weakly or less than the wild type.
Key:
[1] = target: mouse CTLA4 displayed on yeast (mouse) (UniProt P09793); test: yeast display, flow cytometry
MH3IQ [2] = target: T1, MH3IQ; test: flow cytometry on yeast displaying CTLA4; Normalized FACS Bound, human WT = 1
T1 sequence (CTLA4 displayed on yeast): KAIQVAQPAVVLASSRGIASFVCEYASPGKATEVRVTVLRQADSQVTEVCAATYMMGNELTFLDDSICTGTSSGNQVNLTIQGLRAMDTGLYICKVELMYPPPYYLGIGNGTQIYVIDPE

Chains of the proteins cited; added tags and fusions are not shown. Residues count along the entry.
UniProt P42081, residues 24-247: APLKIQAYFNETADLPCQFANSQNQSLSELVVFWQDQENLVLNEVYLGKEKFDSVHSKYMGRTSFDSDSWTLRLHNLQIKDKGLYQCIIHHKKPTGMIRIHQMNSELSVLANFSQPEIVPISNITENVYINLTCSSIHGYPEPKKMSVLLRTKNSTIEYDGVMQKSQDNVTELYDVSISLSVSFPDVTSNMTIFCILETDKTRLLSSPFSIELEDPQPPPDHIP

Y105L [3] = target: T2, Y105L; test: as above
T2 sequence (CTLA4 displayed on yeast): T1 sequence (CTLA4 displayed on yeast) with I3M, Q4H, Y105L

I108L [4] = target: T3, I108L; test: as above
T3 sequence (CTLA4 displayed on yeast): T1 sequence (CTLA4 displayed on yeast) with I3M, Q4H, I108L

I108M [5] = target: T4, I108M; test: as above
T4 sequence (CTLA4 displayed on yeast): T1 sequence (CTLA4 displayed on yeast) with I3M, Q4H, I108M

[6] = target: mouse CTLA4 displayed on yeast (mouse) (UniProt P09793); test: as above
L106V [7] = target: T5, L106V; test: as above
T5 sequence (CTLA4 displayed on yeast): T1 sequence (CTLA4 displayed on yeast) with I3M, Q4H, L106V

L106D [8] = target: T6, L106D; test: as above
T6 sequence (CTLA4 displayed on yeast): T1 sequence (CTLA4 displayed on yeast) with I3M, Q4H, L106D

Y105F [9] = target: T7, Y105F; test: as above
T7 sequence (CTLA4 displayed on yeast): T1 sequence (CTLA4 displayed on yeast) with I3M, Q4H, Y105F

MH3IQ [10] = target: T1, MH3IQ; test: as above; remark: listed apart in the source
Y105L [11] = target: T2, Y105L; test: as above; remark: listed apart in the source
I108L [12] = target: T3, I108L; test: as above; remark: listed apart in the source
I108M [13] = target: T4, I108M; test: as above; remark: listed apart in the source
[14] = target: mouse CTLA4 displayed on yeast (mouse) (UniProt P09793); test: as above; remark: listed apart in the source
L106V [15] = target: T5, L106V; test: as above; remark: listed apart in the source
L106D [16] = target: T6, L106D; test: as above; remark: listed apart in the source
Y105F [17] = target: T7, Y105F; test: as above; remark: listed apart in the source

Measured: binding

human CD86 (epitope mapping reagent) (from UniProt P42081 24-247) (ligand)
binds: [1] | MH3IQ [2] | Y105L [3] | I108L [4] | I108M [5] | [6] | L106V [7] | L106D [8] | Y105F [9]

human CD80 (recombinant) (from UniProt P33681 35-242) (ligand)
binds: [1] | MH3IQ [2] | Y105L [3] | I108L [4] | I108M [5] | [6] | L106V [7] | L106D [8] | Y105F [9]

B1: mouse CD86 (ligand, UniProt P42082 24-244, looked up)
chain: VSVETQAYFNGTAYLPCPFTKAQNISLSELVVFWQDQQKLVLYEHYLGTEKLDSVNAKYLGRTSFDRNNWTLRLHNVQIKDMGSYDCFIQKKPPTGSIILQQTLTELSVIANFSEPEIKLAQNVTGNSGINLTCTSKQGHPKPKKMYFLITNSTNEYGDNMQISQDNVTELFSISNSLSLSFPDGVWHMTVVCVLETESMKISSKPLNFTQEFPSPQTYWK
binds: [1] | MH3IQ [10] | Y105L [11] | I108L [12] | I108M [13] | [14] | L106V [15] | L106D [16] | Y105F [17]

— patent publication US20210206855A1 (ADAGENE, published 2021)
